Experimental data: PubChem BioAssay AID1508597 (Cure First, 2020)
Screen: 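Survival screen with siRNA in ovarian cancer cells derived from patients, with or without rucaparib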 (primary screen). System: human ovarian carcinoma lines grown from tumours: OCI-P5x (papillary serous) and OCI-C5x (clear cell). Knock-down reagent: siRNA pool against human genes, 1.25 pmol siRNA per well. Duration: 72 h or 96 h, depending on the cell culture. Treatment: rucaparib 20 µM (about IC30) or vehicle, present until read-out. Measured: 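Luminescent ATP-based viability assay read 72 or 96 h after transfection, depending on culture, given as normalised percent viability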. Direction: viability, normalised: higher = more viable cells remaining. Hit rule: 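Active when normalised viability falls below 80 percent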. Meaning of the calls: active = viability under 80%; inactive = viability 80% or more.
Here is one part, drawn at random, of about 2,100 deposited reagents. 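Calls flag viability under 80% in either arm, not effects specific to rucaparib; the reference for percent is not stated.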 A reagent listed more than once was tested more than once; the source does not tell the runs apart. Not stated in the record: the 100% reference.

The opening 3 entries, to show the layout:
MSH6, rucaparib or vehicle Rucaparib, cell line OCI-C5x (clear cell), technical replicate 1 | viability, normalised (%) = 78.5; call = active
MSH6, rucaparib or vehicle Rucaparib, cell line OCI-C5x (clear cell), technical replicate 1 | viability, normalised (%) = 54.8; call = active
MSH6, rucaparib or vehicle Rucaparib, cell line OCI-C5x (clear cell), technical replicate 2 | viability, normalised (%) = 47; call = active

Main list, from the start:
MSH6, rucaparib or vehicle Rucaparib, cell line OCI-C5x (clear cell), technical replicate 1 | viability, normalised (%) = 78.5; call = active
MSH6, rucaparib or vehicle Rucaparib, cell line OCI-C5x (clear cell), technical replicate 1 | viability, normalised (%) = 54.8; call = active
MSH6, rucaparib or vehicle Rucaparib, cell line OCI-C5x (clear cell), technical replicate 2 | viability, normalised (%) = 47; call = active
MSH6, rucaparib or vehicle Rucaparib, cell line OCI-C5x (clear cell), technical replicate 2 | viability, normalised (%) = 73.9; call = active
MSH6, rucaparib or vehicle Rucaparib, cell line OCI-C5x (clear cell), technical replicate 3 | viability, normalised (%) = 42; call = active
MSH6, rucaparib or vehicle Rucaparib, cell line OCI-C5x (clear cell), technical replicate 3 | viability, normalised (%) = 93.5; call = inactive
MSH6, rucaparib or vehicle Rucaparib, cell line OCI-P5x (serous), technical replicate 1 | viability, normalised (%) = 67.4; call = active
MSH6, rucaparib or vehicle Rucaparib, cell line OCI-P5x (serous), technical replicate 1 | viability, normalised (%) = 89.5; call = inactive
MSH6, rucaparib or vehicle Rucaparib, cell line OCI-P5x (serous), technical replicate 2 | viability, normalised (%) = 64.2; call = active
MSH6, rucaparib or vehicle Rucaparib, cell line OCI-P5x (serous), technical replicate 2 | viability, normalised (%) = 92.9; call = inactive
MSH6, rucaparib or vehicle Rucaparib, cell line OCI-P5x (serous), technical replicate 3 | viability, normalised (%) = 101; call = inactive
MSH6, rucaparib or vehicle Rucaparib, cell line OCI-P5x (serous), technical replicate 3 | viability, normalised (%) = 75; call = active
MSH6, rucaparib or vehicle Vehicle, cell line OCI-C5x (clear cell), technical replicate 1 | viability, normalised (%) = 54.3; call = active
MSH6, rucaparib or vehicle Vehicle, cell line OCI-C5x (clear cell), technical replicate 1 | viability, normalised (%) = 73.4; call = active
MSH6, rucaparib or vehicle Vehicle, cell line OCI-C5x (clear cell), technical replicate 2 | viability, normalised (%) = 61.5; call = active
MSH6, rucaparib or vehicle Vehicle, cell line OCI-C5x (clear cell), technical replicate 2 | viability, normalised (%) = 79.5; call = active
MSH6, rucaparib or vehicle Vehicle, cell line OCI-C5x (clear cell), technical replicate 3 | viability, normalised (%) = 46.5; call = active
MSH6, rucaparib or vehicle Vehicle, cell line OCI-C5x (clear cell), technical replicate 3 | viability, normalised (%) = 62.6; call = active
MSH6, rucaparib or vehicle Vehicle, cell line OCI-P5x (serous), technical replicate 1 | viability, normalised (%) = 90.3; call = inactive
MSH6, rucaparib or vehicle Vehicle, cell line OCI-P5x (serous), technical replicate 1 | viability, normalised (%) = 58.8; call = active
MSH6, rucaparib or vehicle Vehicle, cell line OCI-P5x (serous), technical replicate 2 | viability, normalised (%) = 61.5; call = active
MSH6, rucaparib or vehicle Vehicle, cell line OCI-P5x (serous), technical replicate 2 | viability, normalised (%) = 105; call = inactive
MSH6, rucaparib or vehicle Vehicle, cell line OCI-P5x (serous), technical replicate 3 | viability, normalised (%) = 106; call = inactive
MSH6, rucaparib or vehicle Vehicle, cell line OCI-P5x (serous), technical replicate 3 | viability, normalised (%) = 66.9; call = active
MBD4, rucaparib or vehicle Rucaparib, cell line OCI-C5x (clear cell), technical replicate 1 | viability, normalised (%) = 38.1; call = active
MBD4, rucaparib or vehicle Rucaparib, cell line OCI-C5x (clear cell), technical replicate 1 | viability, normalised (%) = 45.3; call = active
MBD4, rucaparib or vehicle Rucaparib, cell line OCI-C5x (clear cell), technical replicate 2 | viability, normalised (%) = 31.8; call = active
MBD4, rucaparib or vehicle Rucaparib, cell line OCI-C5x (clear cell), technical replicate 2 | viability, normalised (%) = 35.4; call = active
MBD4, rucaparib or vehicle Rucaparib, cell line OCI-C5x (clear cell), technical replicate 3 | viability, normalised (%) = 41.3; call = active
MBD4, rucaparib or vehicle Rucaparib, cell line OCI-C5x (clear cell), technical replicate 3 | viability, normalised (%) = 38; call = active
MBD4, rucaparib or vehicle Rucaparib, cell line OCI-P5x (serous), technical replicate 1 | viability, normalised (%) = 55.8; call = active
MBD4, rucaparib or vehicle Rucaparib, cell line OCI-P5x (serous), technical replicate 1 | viability, normalised (%) = 68.1; call = active
MBD4, rucaparib or vehicle Rucaparib, cell line OCI-P5x (serous), technical replicate 2 | viability, normalised (%) = 86.3; call = inactive
MBD4, rucaparib or vehicle Rucaparib, cell line OCI-P5x (serous), technical replicate 2 | viability, normalised (%) = 54.8; call = active
MBD4, rucaparib or vehicle Rucaparib, cell line OCI-P5x (serous), technical replicate 3 | viability, normalised (%) = 73.5; call = active
MBD4, rucaparib or vehicle Rucaparib, cell line OCI-P5x (serous), technical replicate 3 | viability, normalised (%) = 56.2; call = active
MBD4, rucaparib or vehicle Vehicle, cell line OCI-C5x (clear cell), technical replicate 1 | viability, normalised (%) = 47; call = active
MBD4, rucaparib or vehicle Vehicle, cell line OCI-C5x (clear cell), technical replicate 1 | viability, normalised (%) = 58.1; call = active
MBD4, rucaparib or vehicle Vehicle, cell line OCI-C5x (clear cell), technical replicate 2 | viability, normalised (%) = 43; call = active
MBD4, rucaparib or vehicle Vehicle, cell line OCI-C5x (clear cell), technical replicate 2 | viability, normalised (%) = 62; call = active
MBD4, rucaparib or vehicle Vehicle, cell line OCI-C5x (clear cell), technical replicate 3 | viability, normalised (%) = 61.4; call = active
MBD4, rucaparib or vehicle Vehicle, cell line OCI-C5x (clear cell), technical replicate 3 | viability, normalised (%) = 42.9; call = active
MBD4, rucaparib or vehicle Vehicle, cell line OCI-P5x (serous), technical replicate 1 | viability, normalised (%) = 84; call = inactive
MBD4, rucaparib or vehicle Vehicle, cell line OCI-P5x (serous), technical replicate 1 | viability, normalised (%) = 58; call = active
MBD4, rucaparib or vehicle Vehicle, cell line OCI-P5x (serous), technical replicate 2 | viability, normalised (%) = 81.3; call = inactive
MBD4, rucaparib or vehicle Vehicle, cell line OCI-P5x (serous), technical replicate 2 | viability, normalised (%) = 33.8; call = active
MBD4, rucaparib or vehicle Vehicle, cell line OCI-P5x (serous), technical replicate 3 | viability, normalised (%) = 67.5; call = active
MBD4, rucaparib or vehicle Vehicle, cell line OCI-P5x (serous), technical replicate 3 | viability, normalised (%) = 102; call = inactive
